Laboratory results taken from publication PMC9667139.
No constants are given. Whether binding was seen depends on the method and setting. Binding seen in cells or lysates may run through a third protein. Some results given as binding are weak or reduced against the parent protein; the word gives no strength.

Amino acid sequences for entries named in this document (tags omitted).
UniProt Q8INR6: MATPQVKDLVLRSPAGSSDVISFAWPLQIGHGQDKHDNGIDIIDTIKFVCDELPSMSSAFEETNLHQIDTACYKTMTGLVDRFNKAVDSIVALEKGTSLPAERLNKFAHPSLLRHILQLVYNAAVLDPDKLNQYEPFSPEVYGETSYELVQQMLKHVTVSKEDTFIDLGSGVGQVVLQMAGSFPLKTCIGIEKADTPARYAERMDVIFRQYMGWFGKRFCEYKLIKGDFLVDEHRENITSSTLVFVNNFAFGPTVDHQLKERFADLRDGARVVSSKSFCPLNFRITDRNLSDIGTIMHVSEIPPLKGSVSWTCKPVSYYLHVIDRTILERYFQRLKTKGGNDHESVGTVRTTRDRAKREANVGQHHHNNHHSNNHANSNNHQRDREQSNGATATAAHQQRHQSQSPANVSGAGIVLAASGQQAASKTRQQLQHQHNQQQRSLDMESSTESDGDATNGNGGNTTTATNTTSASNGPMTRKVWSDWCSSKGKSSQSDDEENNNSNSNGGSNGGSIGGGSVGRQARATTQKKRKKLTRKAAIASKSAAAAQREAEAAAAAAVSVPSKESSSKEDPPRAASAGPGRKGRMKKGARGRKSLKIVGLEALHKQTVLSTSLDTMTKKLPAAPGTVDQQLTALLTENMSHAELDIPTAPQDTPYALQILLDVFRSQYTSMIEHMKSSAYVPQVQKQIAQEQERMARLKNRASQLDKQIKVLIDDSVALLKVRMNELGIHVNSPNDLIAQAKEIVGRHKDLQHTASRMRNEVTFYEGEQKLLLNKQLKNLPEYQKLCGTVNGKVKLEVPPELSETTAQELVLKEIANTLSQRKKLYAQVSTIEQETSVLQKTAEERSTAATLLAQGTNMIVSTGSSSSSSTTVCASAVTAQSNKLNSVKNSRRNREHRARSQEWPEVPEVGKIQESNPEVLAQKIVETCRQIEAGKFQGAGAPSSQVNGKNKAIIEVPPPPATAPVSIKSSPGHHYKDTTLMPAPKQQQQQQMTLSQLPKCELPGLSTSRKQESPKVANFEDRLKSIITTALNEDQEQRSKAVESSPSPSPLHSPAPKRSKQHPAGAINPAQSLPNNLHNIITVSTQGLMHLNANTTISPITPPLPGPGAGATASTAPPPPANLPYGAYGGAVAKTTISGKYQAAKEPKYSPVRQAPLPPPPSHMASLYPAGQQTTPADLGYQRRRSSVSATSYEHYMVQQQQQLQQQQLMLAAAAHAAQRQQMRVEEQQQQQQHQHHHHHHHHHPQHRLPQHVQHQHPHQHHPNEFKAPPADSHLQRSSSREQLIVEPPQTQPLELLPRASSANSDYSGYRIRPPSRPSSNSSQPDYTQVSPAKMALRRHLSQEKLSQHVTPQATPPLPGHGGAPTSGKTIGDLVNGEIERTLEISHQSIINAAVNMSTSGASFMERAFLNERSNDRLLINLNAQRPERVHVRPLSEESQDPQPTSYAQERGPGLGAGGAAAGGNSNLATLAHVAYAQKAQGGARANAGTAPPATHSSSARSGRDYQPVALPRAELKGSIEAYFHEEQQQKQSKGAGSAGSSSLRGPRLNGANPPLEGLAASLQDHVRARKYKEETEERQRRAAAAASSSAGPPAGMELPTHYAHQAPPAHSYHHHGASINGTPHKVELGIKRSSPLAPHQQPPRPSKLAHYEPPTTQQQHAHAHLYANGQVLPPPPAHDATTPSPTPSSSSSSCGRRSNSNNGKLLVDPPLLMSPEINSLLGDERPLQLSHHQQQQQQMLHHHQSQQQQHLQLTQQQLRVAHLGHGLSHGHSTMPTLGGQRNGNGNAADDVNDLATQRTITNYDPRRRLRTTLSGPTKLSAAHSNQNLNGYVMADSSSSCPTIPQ

Columns and labels:
[1] = target: GST-H4_(1-34) H4R17A (not stated (human or Drosophila H4 cloned)) (UniProt P84040); assay: pull-down; GST-H4 tail on glutathione agarose beads incubated with Gpp-flag S2 cell lysate, 2 h at 4°C, 50 mM Tris-Cl pH 8.0, 150 mM NaCl; washed with modified RIPA buffer; bound Gpp-flag detected by anti-flag blot; only the target purified
[2] = target: GST-H4_(1-34) H4R17E (not stated (human or Drosophila H4 cloned)) (UniProt P84040); assay: as above

binding [1]: binds
binding [2]: binds
Substance: Gpp-flag (grappa-flag; Gpp, Dot1 homologue in flies) (from UniProt Q8INR6 1-1848) (enzyme)
